These are yes or no findings as the source states them, for the method shown. A result given as binding can be weak or reduced; the word gives no strength.
These binders were tested against iC3b (assay: cross reactivity, ELISA on directly coated iC3b, anti-His detection).

Binder	binding
MOR09136 Fab (Fab, V domains shown) VH: QVQLVQSGAEVKKPGSSVKVSCKASGGTFSSYTFSWVRQAPGQGLEWMGNILPIFGDANYAQKFQGRVTITADESTSTAYMELSSLRSEDTAVYYCARNKGAFYYMSTYPSLDVWGQGTLVTVSS VL: DIQMTQSPSSLSASVGDRVTITCRASQNINYYLNWYQQKPGKAPKLLIYDAFSLQSGVPSRFSGSGSGTDFTLTISSLQPEDFATYYCQQSWSVPPFTFGQGTKVEIKR	binds
MOR09141 Fab (Fab, V domains shown) VH: QVQLVQSGAEVKKPGSSVKVSCKASGGTFSSYTFSWVRQAPGQGLEWMGNILPIFGDANYAQKFQGRVTITADESTSTAYMELSSLRSEDTAVYYCARNKGAFYYMSTYPSLDVWGQGTLVTVSS VL: DIQMTQSPSSLSASVGDRVTITCRASQNINYYLNWYQQKPGKAPKLLIYDAFSLQSGVPSRFSGSGSGTDFTLTISSLQPEDFATYYCQQSIAVPPFTFGQGTKVEIKR	binds
MOR09423 Fab (Fab, V domains shown) VH: QVQLVQSGAEVKKPGASVKVSCKASGYTFTGYYINWVRQAPGQGLEWMGIISPNQGTTGYAQKFQGRVTMTRDTSISTAYMELSSLRSEDTAVYYCARGNYDHLDYWGQGTLVTVSS VL: DIQMTQSPSSLSASVGDRVTITCRASQGISNYLNWYQQKPGKAPKLLIYDASTLQSGVPSRFSGSGSGTDFTLTISSLQPEDFATYYCQQDWHTLPVTFGQGTKVEIKR	binds
MOR09397 Fab (Fab, V domains shown) VH: QVQLVESGGGLVQPGGSLRLSCAASGFTFSSYWMTWVRQAPGKGLEWVSSIKIKPDGYAASVKGRFTISRDNSKNTLYLQMNSLRAEDTAVYYCARLFYQYFARMDYWGQGTLVTVSS VL: DIQMTQSPSSLSASVGDRVTITCRASQDISNYLNWYQQKPGKAPKLLIYAASNLQSGVPSRFSGSGSGTDFTLTISSLQPEDFATYYCQQHDTFRPTFGQGTKVEIKR	binds
MOR09124 Fab (Fab, V domains shown) VH: QVQLVESGGGLVQPGGSLRLSCAASGFTFSSYWMTWVRQAPGKGLEWVSSIKIKPDGYAASVKGRFTISRDNSKNTLYLQMNSLRAEDTAVYYCARLFYQYFARMDYWGQGTLVTVSS VL: DIQMTQSPSSLSASVGDRVTITCRASQDISNYLNWYQQKPGKAPKLLIYAASNLQSGVPSRFSGSGSGTDFTLTISSLQPEDFATYYCQQYDSYSPTFGQGTKVEIKR	binds
MOR09398 Fab (Fab, V domains shown) VH: QVQLVESGGGLVQPGGSLRLSCAASGFTFSSYWMTWVRQAPGKGLEWVSSIKIKPDGYAASVKGRFTISRDNSKNTLYLQMNSLRAEDTAVYYCARLFYQYFARMDYWGQGTLVTVSS VL: DIQMTQSPSSLSASVGDRVTITCRASQDISNYLNWYQQKPGKAPKLLIYAASNLQSGVPSRFSGSGSGTDFTLTISSLQPEDFATYYCQQWDSFSPTFGQGTKVEIKR	binds

The remaining lines, values ahead:

binding	Binder
binds	MOR9610 Fab format (Fab, V domains shown) VH: EVQLVQSGAEVKKPGSSVKVSCKASGGTFSSYTFSWVRQAPGQGLEWMGNILPIFGDANYAQKFQGRVTITADESTSTAYMELSSLRSEDTAVYYCARNKGAFYYMSTYPSLDVWGQGTLVTVSS VL: DIQMTQSPSSLSASVGDRVTITCRASQNINYYLNWYQQKPGKAPKLLIYDAFSLQSGVPSRFSGSGSGTDFTLTISSLQPEDFATYYCQQSIAVPPFTFGQGTKVEIK
binds	MOR9556 Fab format (Fab, V domains shown) VH: EVQLVESGGGLVQPGGSLRLSCAASGFTFSSYWMTWVRQAPGKGLEWVSSIKIKPDGYAASVKGRFTISRDNSKNTLYLQMNSLRAEDTAVYYCARLFYQYFARMDYWGQGTLVTVSS VL: DIQMTQSPSSLSASVGDRVTITCRASQDISNYLNWYQQKPGKAPKLLIYAASNLQSGVPSRFSGSGSGTDFTLTISSLQPEDFATYYCQQYDSYSPTFGQGTKVEIK
binds	MOR9675 Fab format (Fab, V domains shown) VH: EVQLVQSGAEVKKPGASVKVSCKASGYTFTGYYINWVRQAPGQGLEWMGIISPNQGTTGYAQKFQGRVTMTRDTSISTAYMELSSLRSEDTAVYYCARGNYDHLDYWGQGTLVTVSS VL: DIQMTQSPSSLSASVGDRVTITCRASQGISNYLNWYQQKPGKAPKLLIYDASTLQSGVPSRFSGSGSGTDFTLTISSLQPEDFATYYCQQDWHTLPVTFGQGTKVEIK

These binders were tested against cynomolgus complement C3b protein (cynomolgus monkey (Macaca fascicularis)) (assay: capture ELISA, Fab lysate, secondary screening).

binding	Binder
binds	MOR09124 Fab (Fab, V domains shown) VH: QVQLVESGGGLVQPGGSLRLSCAASGFTFSSYWMTWVRQAPGKGLEWVSSIKIKPDGYAASVKGRFTISRDNSKNTLYLQMNSLRAEDTAVYYCARLFYQYFARMDYWGQGTLVTVSS VL: DIQMTQSPSSLSASVGDRVTITCRASQDISNYLNWYQQKPGKAPKLLIYAASNLQSGVPSRFSGSGSGTDFTLTISSLQPEDFATYYCQQYDSYSPTFGQGTKVEIKR

What follows are binders tested against iC3b (assay: iC3b binding ELISA, iC3b coated directly, IgG titrated [iC3b binding ELISA]).

binding	Binder
binds	MOR09609 IgG (antibody, V domains shown) VH: EVQLVQSGAEVKKPGSSVKVSCKASGGTFSSYTFSWVRQAPGQGLEWMGNILPIFGDANYAQKFQGRVTITADESTSTAYMELSSLRSEDTAVYYCARNKGAFYYMSTYPSLDVWGQGTLVTVSS VL: DIQMTQSPSSLSASVGDRVTITCRASQNINYYLNWYQQKPGKAPKLLIYDAFSLQSGVPSRFSGSGSGTDFTLTISSLQPEDFATYYCQQSWSVPPFTFGQGTKVEIKR
binds	MOR09610 IgG (antibody, V domains shown) VH: EVQLVQSGAEVKKPGSSVKVSCKASGGTFSSYTFSWVRQAPGQGLEWMGNILPIFGDANYAQKFQGRVTITADESTSTAYMELSSLRSEDTAVYYCARNKGAFYYMSTYPSLDVWGQGTLVTVSS VL: DIQMTQSPSSLSASVGDRVTITCRASQNINYYLNWYQQKPGKAPKLLIYDAFSLQSGVPSRFSGSGSGTDFTLTISSLQPEDFATYYCQQSIAVPPFTFGQGTKVEIKR
binds	MOR09675 IgG (antibody, V domains shown) VH: EVQLVQSGAEVKKPGASVKVSCKASGYTFTGYYINWVRQAPGQGLEWMGIISPNQGTTGYAQKFQGRVTMTRDTSISTAYMELSSLRSEDTAVYYCARGNYDHLDYWGQGTLVTVSS VL: DIQMTQSPSSLSASVGDRVTITCRASQGISNYLNWYQQKPGKAPKLLIYDASTLQSGVPSRFSGSGSGTDFTLTISSLQPEDFATYYCQQDWHTLPVTFGQGTKVEIKR
binds	MOR09556 IgG (antibody, V domains shown) VH: EVQLVESGGGLVQPGGSLRLSCAASGFTFSSYWMTWVRQAPGKGLEWVSSIKIKPDGYAASVKGRFTISRDNSKNTLYLQMNSLRAEDTAVYYCARLFYQYFARMDYWGQGTLVTVSS VL: DIQMTQSPSSLSASVGDRVTITCRASQDISNYLNWYQQKPGKAPKLLIYAASNLQSGVPSRFSGSGSGTDFTLTISSLQPEDFATYYCQQYDSYSPTFGQGTKVEIKR
binds	MOR09612 IgG (antibody, V domains shown) VH: EVQLVESGGGLVQPGGSLRLSCAASGFTFSSYWMTWVRQAPGKGLEWVSSIKIKPDGYAASVKGRFTISRDNSKNTLYLQMNSLRAEDTAVYYCARLFYQYFARMDYWGQGTLVTVSS VL: DIQMTQSPSSLSASVGDRVTITCRASQDISNYLNWYQQKPGKAPKLLIYAASNLQSGVPSRFSGSGSGTDFTLTISSLQPEDFATYYCQQWDSFSPTFGQGTKVEIKR
binds	MOR09611 IgG (antibody, V domains shown) VH: EVQLVESGGGLVQPGGSLRLSCAASGFTFSSYWMTWVRQAPGKGLEWVSSIKIKPDGYAASVKGRFTISRDNSKNTLYLQMNSLRAEDTAVYYCARLFYQYFARMDYWGQGTLVTVSS VL: DIQMTQSPSSLSASVGDRVTITCRASQDISNYLNWYQQKPGKAPKLLIYAASNLQSGVPSRFSGSGSGTDFTLTISSLQPEDFATYYCQQHDTFRPTFGQGTKVEIKR

From US20100291106A1
